# Structures can show the parent of a compound that is named as a salt. This is one part of the list. Single values are uncertain here, since repeats match poorly.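 ReNCell VM, a human fetal ventral-midbrain neural progenitor line, was differentiated without mitogens. Blinded raters scored images stained for doublecortin (early neurons) or tyrosine hydroxylase (dopaminergic neurons) against untreated wells (0 = no change). Scores were averaged across repeats and both raters, and compounds averaging 2 or more were selected as hits for retesting.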
# Experiments:
# ReNCell VM [1] = assay: neuronal differentiation score (DCX+ cell fraction vs untreated, manual image score) (score (-3 to 3)); higher = more neuronal differentiation; conditions: 2 uM, 2 weeks
# ReNCell VM [2] = assay: dopaminergic neuron differentiation score (TH+ cell fraction vs untreated, manual image score) (score (0 to 3)); higher = more TH+ dopaminergic neuron differentiation; conditions: 2 uM, 4 weeks, BDNF 10 ng/ml + GDNF 10 ng/ml
smiles,measurement,setting,value
CC(C)NCC(O)c1ccc(N)c(C#N)c1 (stereo unspecified) [Cimaterol],neuronal differentiation score,ReNCell VM [1]; library: Tocriscreen,inactive: 0
same,dopaminergic neuron differentiation score,ReNCell VM [2]; library: Tocriscreen,inactive: 0
Cc1cc([C@@H]2CCCN2C)on1 [ABT-418 hydrochloride],neuronal differentiation score,ReNCell VM [1]; library: LOPAC,inactive: 0
same,dopaminergic neuron differentiation score,ReNCell VM [2]; library: LOPAC,inactive: 0
CNC(C)[C@H](O)c1ccccc1 (stereo partly specified),neuronal differentiation score,ReNCell VM [1]; library: Spectrum,inactive: 0
same,dopaminergic neuron differentiation score,ReNCell VM [2]; library: Spectrum,inactive: 0
CC[C@@H](C(=O)[C@@H](C)[C@@H](O)[C@H](C)[C@@H]1O[C@@H]([C@@H](CC)C(=O)O)CC[C@@H]1C)[C@H]1O[C@]2(C=C[C@@H](O)[C@]3(CC[C@@](C)([C@H]4CC[C@](O)(CC)[C@H](C)O4)O3)O2)[C@H](C)C[C@@H]1C,neuronal differentiation score,ReNCell VM [1]; library: Spectrum,inactive: 0
same,dopaminergic neuron differentiation score,ReNCell VM [2]; library: Spectrum,inactive: 0
CCC(C)C(=O)OC1CC2(C)C(c3ccoc3)OC(=O)CC23OC2(C)OC34C(OC(=O)C(C)C)C3(O)C(OC(=O)C5(C)OC5C)C5(C)CC3(O)C(C)(C5CC(=O)OC)C14O2 (stereo unspecified),neuronal differentiation score,ReNCell VM [1]; library: Spectrum,inactive: 0
same,dopaminergic neuron differentiation score,ReNCell VM [2]; library: Spectrum,inactive: 0
CCC1(c2cccc(O)c2)CCCCN(C)C1 (stereo unspecified) [Meptazinol hydrochloride],neuronal differentiation score,ReNCell VM [1]; library: Prestwick,inactive: 0
same,dopaminergic neuron differentiation score,ReNCell VM [2]; library: Prestwick,inactive: 0
CC(C)C[C@H]1C(=O)N2CCC[C@H]2[C@]2(O)O[C@](NC(=O)[C@@H]3C=C4c5cccc6[nH]c(Br)c(c56)C[C@H]4N(C)C3)(C(C)C)C(=O)N12 [Bromocriptine mesylate],neuronal differentiation score,ReNCell VM [1]; library: Tocriscreen,inactive: 0
same,dopaminergic neuron differentiation score,ReNCell VM [2]; library: Tocriscreen,inactive: 0
CC(=O)[C@H]1CC[C@H]2[C@@H]3CC[C@H]4C[C@H](O)CC[C@]4(C)[C@H]3CC[C@]12C,neuronal differentiation score,ReNCell VM [1]; library: Spectrum,inactive: 0
same,dopaminergic neuron differentiation score,ReNCell VM [2]; library: Spectrum,inactive: 0
CCCCCCCCC(=O)NCc1ccc(O)c(OC)c1,neuronal differentiation score,ReNCell VM [1]; library: Spectrum,inactive: 0
same,dopaminergic neuron differentiation score,ReNCell VM [2]; library: Spectrum,inactive: 0
CC1(C(=O)O)C2CCC(O2)C1(C)C(=O)O (stereo unspecified) [Cantharidic Acid],neuronal differentiation score,ReNCell VM [1]; library: LOPAC,inactive: 0
same,dopaminergic neuron differentiation score,ReNCell VM [2]; library: LOPAC,inactive: 0
"c1ccc(C2CNCc3ccccc32)cc1 (stereo unspecified) [4-Phenyl-1,2,3,4-tetrahydroisoquinoline hydrochloride]",neuronal differentiation score,ReNCell VM [1]; library: Tocriscreen,inactive: 0
same,dopaminergic neuron differentiation score,ReNCell VM [2]; library: Tocriscreen,inactive: 0
COc1ccc(C(=O)O)cc1OC,neuronal differentiation score,ReNCell VM [1]; library: Spectrum,inactive: 0
same,dopaminergic neuron differentiation score,ReNCell VM [2]; library: Spectrum,inactive: 0
C[C@]12CCC(=O)C=C1CCc1ccc(O)cc12,neuronal differentiation score,ReNCell VM [1]; library: Spectrum,inactive: 0
same,dopaminergic neuron differentiation score,ReNCell VM [2]; library: Spectrum,inactive: 0
CC1=NCCc2c1[nH]c1cc(O)ccc21,neuronal differentiation score,ReNCell VM [1]; library: Spectrum,inactive: 0
same,dopaminergic neuron differentiation score,ReNCell VM [2]; library: Spectrum,inactive: 0
C[C@H]1O[C@@H](O[C@H]2[C@@H](O)C[C@H](O[C@H]3[C@@H](O)C[C@H](O[C@H]4CC[C@@]5(C)[C@H](CC[C@@H]6[C@@H]5CC[C@]5(C)[C@@H](C7=CC(=O)OC7)[C@@H](O)C[C@]65O)C4)O[C@@H]3C)O[C@@H]2C)C[C@H](O)[C@@H]1O,neuronal differentiation score,ReNCell VM [1]; library: Spectrum,inactive: 0
same,dopaminergic neuron differentiation score,ReNCell VM [2]; library: Spectrum,inactive: 0
S=C=Nc1cccc(C2(N3CCCCC3)CCCCC2)c1 [Metaphit],neuronal differentiation score,ReNCell VM [1]; library: Tocriscreen,inactive: 0
same,dopaminergic neuron differentiation score,ReNCell VM [2]; library: Tocriscreen,inactive: 0
CCC(C)C(=O)O[C@@H]1C[C@@]2(C)[C@H](c3ccoc3)OC(=O)CC23OC2(C)O[C@]14[C@]1(C)[C@@H](CC(=O)OC)C5(C)CC1(O)[C@](O)(C5OC(=O)C1(C)OC1C)[C@@H](OC(C)=O)[C@]34O2 (stereo partly specified),neuronal differentiation score,ReNCell VM [1]; library: Spectrum,inactive: 0
same,dopaminergic neuron differentiation score,ReNCell VM [2]; library: Spectrum,inactive: 0
CN1C2CCC1CC(OC(c1ccccc1)c1ccc(Cl)cc1)C2 (stereo unspecified),neuronal differentiation score,ReNCell VM [1]; library: Tocriscreen,inactive: 0
same,dopaminergic neuron differentiation score,ReNCell VM [2]; library: Tocriscreen,inactive: 0
NCC#Cc1ccccc1 [3-Phenylpropargylamine hydrochloride],neuronal differentiation score,ReNCell VM [1]; library: LOPAC,inactive: 0
same,dopaminergic neuron differentiation score,ReNCell VM [2]; library: LOPAC,inactive: 0
C=CCN1CCc2cccc3c2[C@H]1Cc1ccc(O)c(O)c1-3 [R(-)-N-Allylnorapomorphine hydrobromide],neuronal differentiation score,ReNCell VM [1]; library: LOPAC,inactive: 0
same,dopaminergic neuron differentiation score,ReNCell VM [2]; library: LOPAC,inactive: 0
COc1ccc2c(c1O)-c1c(OC)c(OC)cc3c1[C@H](C2)N(C)CC3,neuronal differentiation score,ReNCell VM [1]; library: Spectrum,inactive: 0
same,dopaminergic neuron differentiation score,ReNCell VM [2]; library: Spectrum,inactive: 0
CO[C@@H]1C=C2CCN(C)[C@@H]2C2c3cc4c(cc3C(=O)OC21)OCO4 (stereo partly specified) [Ungerine nitrate],neuronal differentiation score,ReNCell VM [1]; library: Phytochemical,inactive: 0
same,dopaminergic neuron differentiation score,ReNCell VM [2]; library: Phytochemical,inactive: 0
CC(Cc1ccc(O)cc1)NCC(O)c1cc(O)cc(O)c1 (stereo unspecified),neuronal differentiation score,ReNCell VM [1]; library: Spectrum,inactive: 0
same,dopaminergic neuron differentiation score,ReNCell VM [2]; library: Spectrum,inactive: 0
O=C(NCNC(=O)NC1C(=O)NC(=O)N1CO)NC1C(=O)NC(=O)N1CO (stereo unspecified) [Imidurea],neuronal differentiation score,ReNCell VM [1]; library: Prestwick,inactive: 0
same,dopaminergic neuron differentiation score,ReNCell VM [2]; library: Prestwick,inactive: 0
C=C[C@H]1CN2CC[C@H]1C[C@H]2[C@H](OC(=O)OCC)c1ccnc2ccc(OC)cc12,neuronal differentiation score,ReNCell VM [1]; library: Spectrum,inactive: 0
same,dopaminergic neuron differentiation score,ReNCell VM [2]; library: Spectrum,inactive: 0
CC(CCc1ccccc1)NC(C)C(O)c1ccc(O)cc1 (stereo unspecified) [Nylidrin hydrochloride],neuronal differentiation score,ReNCell VM [1]; library: LOPAC,inactive: 0
same,dopaminergic neuron differentiation score,ReNCell VM [2]; library: LOPAC,inactive: 0
c1ccc2c(c1)[nH]c1cnccc12 [Norharman],neuronal differentiation score,ReNCell VM [1]; library: Phytochemical,inactive: 0
same,dopaminergic neuron differentiation score,ReNCell VM [2]; library: Phytochemical,inactive: 0
C[N+]1(C)CCc2cc3c(cc2[C@H]1[C@@H]1OC(=O)c2c1ccc1c2OCO1)OCO3 [(-)-Bicuculline methiodide],neuronal differentiation score,ReNCell VM [1]; library: Tocriscreen,inactive: 0
same,dopaminergic neuron differentiation score,ReNCell VM [2]; library: Tocriscreen,inactive: 0

# Retrieved one by one from above, 2 records:
smiles,measurement,setting,value
CC(=O)[C@H]1CC[C@H]2[C@@H]3CC[C@H]4C[C@H](O)CC[C@]4(C)[C@H]3CC[C@]12C,dopaminergic neuron differentiation score,ReNCell VM [2]; library: Spectrum,inactive: 0
CC(Cc1ccc(O)cc1)NCC(O)c1cc(O)cc(O)c1 (stereo unspecified),neuronal differentiation score,ReNCell VM [1]; library: Spectrum,inactive: 0
